# This is one part of the list.
# By UniProt entry, the sequences of proteins in these tests, tags left out. Where a name states a change or a piece, a line headed by the entry shows the natural chain unless it says otherwise.
# UniProt Q86VU5: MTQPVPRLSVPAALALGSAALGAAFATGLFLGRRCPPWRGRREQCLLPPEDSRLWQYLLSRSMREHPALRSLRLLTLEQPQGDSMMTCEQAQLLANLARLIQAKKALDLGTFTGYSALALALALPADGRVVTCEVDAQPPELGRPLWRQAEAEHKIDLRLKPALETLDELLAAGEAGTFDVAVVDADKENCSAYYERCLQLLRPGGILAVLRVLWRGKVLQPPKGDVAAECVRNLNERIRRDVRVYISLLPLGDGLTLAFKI
# UniProt P67870, whole entry, looked up: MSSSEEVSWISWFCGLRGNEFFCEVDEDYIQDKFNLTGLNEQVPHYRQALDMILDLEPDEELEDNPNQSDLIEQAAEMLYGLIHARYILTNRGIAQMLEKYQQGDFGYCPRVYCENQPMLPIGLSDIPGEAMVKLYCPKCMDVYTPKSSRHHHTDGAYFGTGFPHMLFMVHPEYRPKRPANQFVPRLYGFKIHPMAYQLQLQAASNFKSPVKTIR
# UniProt Q9Y678: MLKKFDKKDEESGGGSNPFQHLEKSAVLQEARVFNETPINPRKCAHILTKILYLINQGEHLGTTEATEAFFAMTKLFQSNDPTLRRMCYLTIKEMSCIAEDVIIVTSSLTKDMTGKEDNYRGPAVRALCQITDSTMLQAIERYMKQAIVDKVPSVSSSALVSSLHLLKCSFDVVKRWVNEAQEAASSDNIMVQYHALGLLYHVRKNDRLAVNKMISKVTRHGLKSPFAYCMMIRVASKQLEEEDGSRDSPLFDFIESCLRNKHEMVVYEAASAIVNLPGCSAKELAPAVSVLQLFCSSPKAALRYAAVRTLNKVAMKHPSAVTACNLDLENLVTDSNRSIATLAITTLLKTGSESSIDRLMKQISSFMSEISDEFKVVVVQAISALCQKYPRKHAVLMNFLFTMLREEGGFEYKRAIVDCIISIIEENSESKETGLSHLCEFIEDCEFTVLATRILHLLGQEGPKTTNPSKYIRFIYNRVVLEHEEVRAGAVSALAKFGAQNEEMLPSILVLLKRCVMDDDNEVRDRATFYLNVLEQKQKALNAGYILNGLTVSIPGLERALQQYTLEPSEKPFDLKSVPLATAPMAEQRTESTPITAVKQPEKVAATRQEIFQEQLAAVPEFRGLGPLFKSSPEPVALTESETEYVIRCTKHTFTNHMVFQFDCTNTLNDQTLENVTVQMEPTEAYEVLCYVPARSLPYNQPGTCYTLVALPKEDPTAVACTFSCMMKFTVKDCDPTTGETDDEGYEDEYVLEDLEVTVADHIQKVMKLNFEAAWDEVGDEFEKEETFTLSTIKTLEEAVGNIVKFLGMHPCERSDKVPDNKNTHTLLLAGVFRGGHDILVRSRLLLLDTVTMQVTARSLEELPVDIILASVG
# UniProt Q5TZA2: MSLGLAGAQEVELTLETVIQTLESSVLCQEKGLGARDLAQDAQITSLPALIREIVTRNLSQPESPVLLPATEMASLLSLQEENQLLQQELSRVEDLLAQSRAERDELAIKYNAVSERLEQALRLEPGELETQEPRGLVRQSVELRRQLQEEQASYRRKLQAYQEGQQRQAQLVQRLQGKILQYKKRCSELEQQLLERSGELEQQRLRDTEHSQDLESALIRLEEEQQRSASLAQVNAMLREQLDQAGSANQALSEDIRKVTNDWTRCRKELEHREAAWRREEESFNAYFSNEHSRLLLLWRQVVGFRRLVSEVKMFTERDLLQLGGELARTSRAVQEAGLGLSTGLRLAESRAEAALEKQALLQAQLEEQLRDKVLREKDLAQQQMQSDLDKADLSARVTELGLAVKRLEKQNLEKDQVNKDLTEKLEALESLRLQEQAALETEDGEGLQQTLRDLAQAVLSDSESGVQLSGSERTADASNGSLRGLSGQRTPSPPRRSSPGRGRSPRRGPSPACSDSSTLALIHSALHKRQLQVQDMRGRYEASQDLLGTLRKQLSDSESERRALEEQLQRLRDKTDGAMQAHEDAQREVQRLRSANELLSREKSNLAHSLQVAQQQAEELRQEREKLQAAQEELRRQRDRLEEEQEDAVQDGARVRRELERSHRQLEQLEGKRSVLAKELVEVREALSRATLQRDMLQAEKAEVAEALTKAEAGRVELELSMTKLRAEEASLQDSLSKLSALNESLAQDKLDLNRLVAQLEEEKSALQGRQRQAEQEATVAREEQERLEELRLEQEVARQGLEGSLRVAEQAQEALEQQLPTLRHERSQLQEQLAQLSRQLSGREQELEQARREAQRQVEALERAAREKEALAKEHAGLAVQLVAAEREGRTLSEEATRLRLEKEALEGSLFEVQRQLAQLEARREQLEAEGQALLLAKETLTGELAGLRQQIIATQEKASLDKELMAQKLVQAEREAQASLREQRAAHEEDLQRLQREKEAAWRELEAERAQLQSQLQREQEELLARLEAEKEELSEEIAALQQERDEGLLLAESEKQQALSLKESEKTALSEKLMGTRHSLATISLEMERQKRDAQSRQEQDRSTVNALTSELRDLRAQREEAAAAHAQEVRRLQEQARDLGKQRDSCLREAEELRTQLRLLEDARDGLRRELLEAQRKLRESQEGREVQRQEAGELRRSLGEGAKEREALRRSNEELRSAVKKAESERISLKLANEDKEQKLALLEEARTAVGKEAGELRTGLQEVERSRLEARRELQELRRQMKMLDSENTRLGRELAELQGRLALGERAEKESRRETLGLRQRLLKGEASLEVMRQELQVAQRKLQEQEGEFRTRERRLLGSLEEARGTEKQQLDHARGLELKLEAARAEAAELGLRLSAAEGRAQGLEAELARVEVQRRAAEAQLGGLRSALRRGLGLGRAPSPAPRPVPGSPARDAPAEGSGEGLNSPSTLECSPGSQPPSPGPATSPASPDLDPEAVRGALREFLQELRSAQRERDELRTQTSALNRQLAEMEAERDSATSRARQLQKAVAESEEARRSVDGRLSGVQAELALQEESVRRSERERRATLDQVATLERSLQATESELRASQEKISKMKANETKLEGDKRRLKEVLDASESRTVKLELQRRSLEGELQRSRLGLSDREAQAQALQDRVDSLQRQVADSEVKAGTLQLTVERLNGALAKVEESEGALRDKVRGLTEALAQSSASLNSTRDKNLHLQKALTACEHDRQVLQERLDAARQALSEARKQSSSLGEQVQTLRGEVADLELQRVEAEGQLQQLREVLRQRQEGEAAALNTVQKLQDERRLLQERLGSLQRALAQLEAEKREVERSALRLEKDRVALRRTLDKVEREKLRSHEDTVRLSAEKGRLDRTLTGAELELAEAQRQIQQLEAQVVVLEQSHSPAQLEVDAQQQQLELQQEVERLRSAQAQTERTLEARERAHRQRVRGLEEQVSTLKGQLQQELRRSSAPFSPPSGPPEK
# UniProt Q8N684: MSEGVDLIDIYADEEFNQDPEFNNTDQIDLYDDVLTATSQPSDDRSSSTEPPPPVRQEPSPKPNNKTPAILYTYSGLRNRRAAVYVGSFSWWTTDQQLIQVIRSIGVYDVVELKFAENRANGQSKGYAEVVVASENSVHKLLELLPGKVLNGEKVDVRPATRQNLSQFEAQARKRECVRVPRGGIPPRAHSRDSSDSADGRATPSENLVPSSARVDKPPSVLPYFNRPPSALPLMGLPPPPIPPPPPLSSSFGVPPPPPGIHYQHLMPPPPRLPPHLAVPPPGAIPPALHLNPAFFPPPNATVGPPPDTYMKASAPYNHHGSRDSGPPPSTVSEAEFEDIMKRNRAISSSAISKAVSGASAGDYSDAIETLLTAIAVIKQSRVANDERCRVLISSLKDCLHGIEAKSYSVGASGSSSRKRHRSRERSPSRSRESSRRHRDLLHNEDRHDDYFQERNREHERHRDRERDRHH
# UniProt Q99829: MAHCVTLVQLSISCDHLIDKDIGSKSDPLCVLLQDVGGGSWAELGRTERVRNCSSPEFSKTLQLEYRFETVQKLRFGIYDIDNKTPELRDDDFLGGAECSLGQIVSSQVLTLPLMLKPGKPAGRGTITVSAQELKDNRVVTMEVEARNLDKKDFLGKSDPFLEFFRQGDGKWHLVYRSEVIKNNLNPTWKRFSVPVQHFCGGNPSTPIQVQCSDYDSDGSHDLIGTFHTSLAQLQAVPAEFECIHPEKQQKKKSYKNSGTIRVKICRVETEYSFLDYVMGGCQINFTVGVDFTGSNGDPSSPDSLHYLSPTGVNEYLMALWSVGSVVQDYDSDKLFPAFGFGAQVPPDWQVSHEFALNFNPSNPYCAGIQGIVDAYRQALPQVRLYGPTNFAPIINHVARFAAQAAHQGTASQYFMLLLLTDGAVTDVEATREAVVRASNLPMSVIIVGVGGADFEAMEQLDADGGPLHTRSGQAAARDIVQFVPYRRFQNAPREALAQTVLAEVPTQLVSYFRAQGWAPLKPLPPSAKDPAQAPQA
# UniProt O75629: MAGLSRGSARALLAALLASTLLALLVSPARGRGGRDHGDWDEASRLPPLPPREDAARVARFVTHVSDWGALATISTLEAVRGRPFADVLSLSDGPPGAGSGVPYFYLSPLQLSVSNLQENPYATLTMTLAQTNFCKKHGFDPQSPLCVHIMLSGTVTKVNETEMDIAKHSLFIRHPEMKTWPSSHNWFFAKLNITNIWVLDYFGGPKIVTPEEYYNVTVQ
# UniProt O75575: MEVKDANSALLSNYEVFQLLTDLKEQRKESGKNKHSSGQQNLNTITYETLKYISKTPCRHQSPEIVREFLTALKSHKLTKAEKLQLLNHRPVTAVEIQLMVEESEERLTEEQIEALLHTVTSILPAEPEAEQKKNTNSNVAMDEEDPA
# UniProt O75208: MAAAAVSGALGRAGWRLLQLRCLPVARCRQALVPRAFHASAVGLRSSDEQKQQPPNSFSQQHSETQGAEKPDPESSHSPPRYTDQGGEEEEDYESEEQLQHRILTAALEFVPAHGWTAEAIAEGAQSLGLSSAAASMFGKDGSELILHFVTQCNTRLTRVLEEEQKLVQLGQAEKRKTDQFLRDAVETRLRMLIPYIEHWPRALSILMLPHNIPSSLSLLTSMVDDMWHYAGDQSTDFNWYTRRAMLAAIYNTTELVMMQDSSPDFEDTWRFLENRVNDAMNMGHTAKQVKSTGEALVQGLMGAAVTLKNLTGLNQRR
# UniProt Q9UJA2: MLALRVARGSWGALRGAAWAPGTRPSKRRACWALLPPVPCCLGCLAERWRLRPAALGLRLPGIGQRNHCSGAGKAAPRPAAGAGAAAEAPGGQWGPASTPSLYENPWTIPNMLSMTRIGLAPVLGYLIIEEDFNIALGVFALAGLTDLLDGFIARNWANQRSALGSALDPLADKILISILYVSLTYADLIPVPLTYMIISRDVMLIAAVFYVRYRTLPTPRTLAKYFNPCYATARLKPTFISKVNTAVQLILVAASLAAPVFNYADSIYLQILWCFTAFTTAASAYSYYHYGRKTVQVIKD
# UniProt P12074, whole entry, looked up: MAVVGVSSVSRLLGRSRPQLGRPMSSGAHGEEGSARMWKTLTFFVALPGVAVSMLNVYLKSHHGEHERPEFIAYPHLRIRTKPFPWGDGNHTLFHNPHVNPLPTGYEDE
# UniProt Q7KZN9: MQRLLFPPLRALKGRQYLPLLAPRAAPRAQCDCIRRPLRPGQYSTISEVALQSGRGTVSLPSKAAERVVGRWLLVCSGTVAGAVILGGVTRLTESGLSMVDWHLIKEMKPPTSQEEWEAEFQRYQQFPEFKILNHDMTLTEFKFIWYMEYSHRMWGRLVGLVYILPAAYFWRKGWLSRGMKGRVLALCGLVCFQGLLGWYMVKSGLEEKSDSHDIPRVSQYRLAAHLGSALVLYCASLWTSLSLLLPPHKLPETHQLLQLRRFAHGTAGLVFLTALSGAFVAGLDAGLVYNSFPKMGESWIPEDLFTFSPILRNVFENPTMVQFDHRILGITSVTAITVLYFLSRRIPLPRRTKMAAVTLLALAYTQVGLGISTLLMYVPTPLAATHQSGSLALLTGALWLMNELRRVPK
# UniProt Q9UKF6: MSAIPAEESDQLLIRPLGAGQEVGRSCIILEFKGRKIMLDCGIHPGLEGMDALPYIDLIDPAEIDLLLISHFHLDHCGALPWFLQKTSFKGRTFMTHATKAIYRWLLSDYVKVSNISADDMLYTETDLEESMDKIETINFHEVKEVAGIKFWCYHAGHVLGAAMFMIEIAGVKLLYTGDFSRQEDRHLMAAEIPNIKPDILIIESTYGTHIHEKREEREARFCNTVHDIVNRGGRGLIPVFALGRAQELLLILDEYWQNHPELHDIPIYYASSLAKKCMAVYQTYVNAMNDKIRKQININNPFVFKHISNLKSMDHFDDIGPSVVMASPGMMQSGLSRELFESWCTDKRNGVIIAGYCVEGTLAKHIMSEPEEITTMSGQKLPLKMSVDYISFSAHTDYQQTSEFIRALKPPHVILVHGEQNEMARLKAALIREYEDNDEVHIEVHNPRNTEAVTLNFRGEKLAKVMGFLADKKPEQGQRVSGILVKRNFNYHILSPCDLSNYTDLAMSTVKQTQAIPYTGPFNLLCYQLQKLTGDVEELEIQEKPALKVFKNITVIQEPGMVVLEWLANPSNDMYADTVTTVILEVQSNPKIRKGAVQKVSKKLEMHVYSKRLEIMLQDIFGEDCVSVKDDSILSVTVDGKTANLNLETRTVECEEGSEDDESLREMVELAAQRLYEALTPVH
# Experiments:
# Experiment in all cases: log2 fold change, soluble protein after heating vs DMSO (PISA); higher = thermal stabilisation; K562 cells, 10 uM, 30 min; active = over 0.2 and 3.5 SD of the protein, either way, in both replicates (recomputed)
# [1] = compound: CS(=O)(=O)c1ccc(-c2cnc(N)c(C(=O)Nc3ccccc3)n2)cc1
# In short: (§1)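 For each measurement, 10 μM compound was applied for 30 min to K562 cells at 2×10^6 cells/mL. Aliquots were heated for 3 min across 48°C-58°C, pooled, and extracted in PBS with 0.5% NP-40 at 4°C; the supernatant after 21,000xg for 90 min was soluble protein. This was quantified by TMTpro 16plex LC-MS/MS with channel sums equalised, and thermal stability was reported relative to control samples from duplicates, on a log2 fold-change scale.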
# crizotinib = compound: C[C@@H](Oc1cc(-c2cnn(C3CCNCC3)c2)cnc1N)c1c(Cl)ccc(F)c1Cl [crizotinib]
# In short: as §1
# [2] = compound: C[C@@H]1COCCN1C2=NC(=NC(=C2)C3(CC3)S(=O)(=O)C)C4=C5C=CNC5=CC=C4
# In short: as §1
# [3] = compound: C[C@H](C1=CC=C(C=C1)C(=O)NC2=C3C=CNC3=NC=C2)N
# In short: as §1
# duvelisib = compound: C[C@H](Nc1ncnc2nc[nH]c12)c1cc2cccc(Cl)c2c(=O)n1-c1ccccc1 [duvelisib]
# In short: as §1
# gandotinib = compound: Cc1cc(Nc2cc(CN3CCOCC3)c3nc(C)c(Cc4ccc(Cl)cc4F)n3n2)n[nH]1 [gandotinib]
# In short: as §1
# tozasertib = compound: Cc1cc(Nc2cc(N3CCN(C)CC3)nc(Sc3ccc(NC(=O)C4CC4)cc3)n2)n[nH]1 [tozasertib]
# In short: as §1
# [4] = compound: Cc1cc(SCc2sc(-c3ccc(C(F)(F)F)cc3)nc2C)ccc1OCC(=O)O
# In short: as §1
# doramapimod = compound: Cc1ccc(-n2nc(C(C)(C)C)cc2NC(=O)Nc2ccc(OCCN3CCOCC3)c3ccccc23)cc1 [doramapimod]
# In short: as §1
# ispinesib = compound: Cc1ccc(C(=O)N(CCCN)[C@@H](c2nc3cc(Cl)ccc3c(=O)n2Cc2ccccc2)C(C)C)cc1 [ispinesib]
# In short: as §1
# bafetinib = compound: Cc1ccc(NC(=O)c2ccc(CN3CC[C@H](N(C)C)C3)c(C(F)(F)F)c2)cc1Nc1nccc(-c2cncnc2)n1 [bafetinib]
# In short: as §1
# [5] = compound: Cc1cccc(CC(=O)N2CCc3c2ccc(-c2cn(C)c4ncnc(N)c24)c3F)n1
# In short: as §1
# nilotinib = compound: Cc1cn(-c2cc(NC(=O)c3ccc(C)c(Nc4nccc(-c5cccnc5)n4)c3)cc(C(F)(F)F)c2)cn1 [nilotinib]
# In short: as §1
# [6] = compound: Cc1nc(Nc2n[nH]c3c2CN(C(=O)N[C@H](CN(C)C)c2ccccc2)C3(C)C)c2sccc2n1
# In short: as §1
# dasatinib = compound: Cc1nc(Nc2ncc(C(=O)Nc3c(C)cccc3Cl)s2)cc(N2CCN(CCO)CC2)n1 [dasatinib]
# In short: as §1
# [7] = compound: Cc1ncc(-c2ccnc(Nc3ccc(S(C)(=O)=O)cc3)n2)n1C(C)C
# In short: as §1
# [8] = compound: Cn1cc(-c2ccc3c(c2)CCN3C(=O)Cc2cccc(C(F)(F)F)c2)c2c(N)ncnc21
# In short: as §1
# [9] = compound: Cn1cc(-c2ccc3nnc(C(F)(F)c4ccc5ncccc5c4)n3n2)cn1
# In short: as §1
# tipifarnib = compound: Cn1cncc1[C@@](N)(c1ccc(Cl)cc1)c1ccc2c(c1)c(-c1cccc(Cl)c1)cc(=O)n2C [tipifarnib]
# In short: as §1
# mubritinib = compound: FC(F)(F)c1ccc(/C=C/c2nc(COc3ccc(CCCCn4ccnn4)cc3)co2)cc1 [mubritinib]
# In short: as §1
Target,log2 fold change [1],log2 fold change (crizotinib),log2 fold change [2],log2 fold change [3],log2 fold change (duvelisib),log2 fold change (gandotinib),log2 fold change (tozasertib),log2 fold change [4],log2 fold change (doramapimod),log2 fold change (ispinesib),log2 fold change (bafetinib),log2 fold change [5],log2 fold change (nilotinib),log2 fold change [6],log2 fold change (dasatinib),log2 fold change [7],log2 fold change [8],log2 fold change [9],log2 fold change (tipifarnib),log2 fold change (mubritinib)
COMTD1 (UniProt Q86VU5),inactive: 0.041,inactive: 0.092,inactive: 0.016,inactive: -0.03,inactive: 0.035,inactive: 0.077,inactive: 0.019,inactive: 0.067,inactive: 0.018,inactive: -0.015,inactive: -0.024,inactive: 0.063,inactive: -0.053,inactive: 0.007,inactive: -0.019,inactive: -0.022,inactive: 0.189,inactive: -0.088,inactive: -0.02,inactive: 0.077
CSNK2B (UniProt P67870),inactive: 0.05,inactive: -0.037,inactive: 0.049,inactive: -0.128,–,inactive: -0.027,–,inactive: -0.005,inactive: -0.002,inactive: 0.016,inactive: 0.036,inactive: 0.014,inactive: 0.052,inactive: 0.018,inactive: 0.015,inactive: -0.05,inactive: 0.038,inactive: -0.01,inactive: -0.042,inactive: -0.017
COQ10B (UniProt Q9H8M1),inactive: -0.057,inactive: 0.014,inactive: 0.423,inactive: 0.328,inactive: 0.087,–,–,inactive: -0.051,inactive: 0.141,inactive: -0.177,inactive: -0.299,–,–,–,inactive: 0.121,–,inactive: -0.139,inactive: -0.048,–,–
CRYZL1 (UniProt O95825),inactive: -0.047,inactive: 0.042,inactive: 0.038,inactive: -0.02,inactive: 0.027,inactive: 0.005,inactive: -0.022,inactive: -0.03,inactive: -0.026,inactive: 0.065,inactive: -0.052,inactive: -0.019,inactive: 0.001,inactive: 0.02,inactive: 0.015,inactive: -0.016,inactive: 0.009,inactive: -0.003,inactive: 0.007,inactive: 0.022
COPG1 (UniProt Q9Y678),inactive: -0.003,inactive: 0.039,inactive: 0.043,inactive: -0.004,inactive: -0.019,inactive: -0.047,inactive: 0.009,inactive: 0.025,inactive: -0.034,inactive: 0.122,inactive: 0.015,inactive: 0.023,inactive: -0.009,inactive: -0.002,inactive: -0.02,inactive: -0.009,inactive: -0.002,inactive: -0.029,inactive: -0.011,inactive: 0.024
CROCC (UniProt Q5TZA2),inactive: 0.053,inactive: 0.176,inactive: 0.061,inactive: 0.033,inactive: 0.035,inactive: -0.076,inactive: 0.016,inactive: 0.005,inactive: 0.03,inactive: 0.011,inactive: -0.041,inactive: 0.007,inactive: -0.052,inactive: 0.006,inactive: -0.001,inactive: 0.005,inactive: -0.004,inactive: 0.009,inactive: -0.001,inactive: 0.106
CRBN (UniProt Q96SW2),inactive: -0.024,inactive: 0.014,inactive: 0.019,inactive: -0.022,inactive: 0.06,inactive: -0.034,inactive: 0.023,inactive: -0.043,inactive: -0.009,inactive: -0.007,inactive: -0.05,inactive: -0.009,inactive: 0,inactive: 0.017,inactive: -0.032,inactive: -0.017,inactive: 0.011,inactive: 0.017,inactive: 0.056,inactive: 0.046
CPSF7 isoform 3 (UniProt Q8N684),inactive: -0.016,inactive: 0.013,inactive: 0.026,inactive: -0.05,–,inactive: -0.004,–,inactive: 0.018,inactive: -0.014,inactive: 0.09,inactive: 0.07,inactive: -0.107,inactive: 0.028,active: -0.552,inactive: 0.012,inactive: 0.044,inactive: 0.003,inactive: -0.027,inactive: -0.048,inactive: -0.048
CPNE1 (UniProt Q99829),inactive: 0.055,inactive: 0.009,inactive: 0.069,inactive: -0.056,inactive: -0.027,inactive: -0.011,inactive: -0.001,inactive: -0.12,inactive: -0.028,inactive: 0.03,inactive: -0.004,inactive: 0.029,inactive: 0.016,inactive: 0.019,inactive: 0.026,inactive: 0.034,inactive: 0.032,inactive: 0.003,inactive: 0.005,inactive: 0.067
CREG1 (UniProt O75629),inactive: 0,inactive: -0.022,inactive: 0.108,inactive: 0.096,inactive: -0.04,inactive: 0.04,inactive: 0.076,inactive: -0.03,inactive: 0.055,inactive: -0.034,inactive: -0.016,inactive: -0.084,inactive: 0.006,inactive: 0.038,inactive: 0.026,inactive: -0.009,inactive: 0.016,inactive: -0.08,inactive: -0.025,inactive: -0.004
CRCP (UniProt O75575),inactive: -0.085,inactive: -0.073,inactive: 0.129,inactive: -0.069,inactive: -0.041,inactive: -0.023,inactive: 0.018,inactive: -0.009,inactive: 0.091,–,inactive: 0.007,inactive: 0.072,inactive: -0.093,inactive: -0.164,inactive: 0.063,inactive: -0.061,inactive: -0.082,–,inactive: 0.026,inactive: 0.056
COQ9 (UniProt O75208),inactive: 0.02,inactive: -0.067,inactive: 0.03,inactive: -0.064,–,inactive: -0.029,–,inactive: 0.032,inactive: -0.079,inactive: -0.055,inactive: -0.124,inactive: 0.074,inactive: -0.06,inactive: -0.035,inactive: -0.147,inactive: 0.001,inactive: 0.052,inactive: 0.028,inactive: -0.068,inactive: -0.04
CRLS1 (UniProt Q9UJA2),inactive: -0.228,inactive: 0.02,–,inactive: -0.047,–,inactive: -0.083,–,inactive: 0.05,inactive: 0.023,–,–,inactive: 0.012,inactive: 0.01,inactive: -0.064,inactive: 0.101,inactive: 0.056,inactive: -0.002,–,inactive: -0.138,inactive: 0.007
CSNK1D (UniProt P48730),inactive: 0.12,inactive: -0.103,inactive: -0.246,inactive: 0.055,–,inactive: 0.054,–,inactive: 0.069,inactive: 0.109,inactive: -0.116,inactive: 0.1,inactive: 0.064,inactive: -0.025,inactive: 0.073,inactive: 0.119,inactive: 0.241,inactive: -0.083,inactive: -0.042,inactive: 0.051,inactive: -0.148
COX6A1 (UniProt P12074),inactive: 0.108,inactive: 0.132,–,inactive: -0.082,inactive: 0.119,–,inactive: -0.059,inactive: -0.024,inactive: 0.076,inactive: 0.096,inactive: -0.142,–,inactive: 0.232,inactive: -0.039,inactive: 0.056,inactive: -0.013,inactive: 0.041,inactive: 0.099,inactive: 0.158,inactive: 0.034
COX15 (UniProt Q7KZN9),inactive: -0.008,inactive: -0.015,inactive: 0.041,inactive: 0.006,–,inactive: -0.07,–,inactive: -0.033,inactive: -0.023,inactive: -0.016,inactive: 0.09,inactive: -0.02,inactive: -0.013,inactive: 0.02,inactive: 0.078,inactive: -0.034,inactive: 0.008,inactive: -0.023,inactive: 0.046,inactive: 0.038
CPSF3 (UniProt Q9UKF6),inactive: -0.004,inactive: 0.01,inactive: 0.013,inactive: -0.006,–,inactive: -0.052,–,inactive: 0.031,inactive: 0,inactive: -0.003,inactive: -0.052,inactive: 0.041,inactive: -0.006,inactive: -0.073,inactive: -0.082,inactive: -0.023,inactive: -0.071,inactive: -0.023,inactive: -0.027,inactive: 0.02

# Full records from above. Values in the order: log2 fold change [1]	log2 fold change (crizotinib)	log2 fold change [2]	log2 fold change [3]	log2 fold change (duvelisib)	log2 fold change (gandotinib)	log2 fold change (tozasertib)	log2 fold change [4]	log2 fold change (doramapimod)	log2 fold change (ispinesib)	log2 fold change (bafetinib)	log2 fold change [5]	log2 fold change (nilotinib)	log2 fold change [6]	log2 fold change (dasatinib)	log2 fold change [7]	log2 fold change [8]	log2 fold change [9]	log2 fold change (tipifarnib)	log2 fold change (mubritinib)
# COMTD1 (UniProt Q86VU5) in the list: inactive: 0.041	inactive: 0.092	inactive: 0.016	inactive: -0.03	inactive: 0.035	inactive: 0.077	inactive: 0.019	inactive: 0.067	inactive: 0.018	inactive: -0.015	inactive: -0.024	inactive: 0.063	inactive: -0.053	inactive: 0.007	inactive: -0.019	inactive: -0.022	inactive: 0.189	inactive: -0.088	inactive: -0.02	inactive: 0.077
# CRLS1 (UniProt Q9UJA2) in the list: inactive: -0.228	inactive: 0.02	–	inactive: -0.047	–	inactive: -0.083	–	inactive: 0.05	inactive: 0.023	–	–	inactive: 0.012	inactive: 0.01	inactive: -0.064	inactive: 0.101	inactive: 0.056	inactive: -0.002	–	inactive: -0.138	inactive: 0.007

# Source: the supplement of paper PMC10849652
